Measured values: paper PMC6218470
No constants are given. Whether binding was seen depends on the method and setting. Binding seen in cells or lysates may run through a third protein. Some results given as binding are weak or reduced against the parent protein; the word gives no strength.

Amino acid sequences for entries named in this document (tags omitted).
UniProt Q8N122: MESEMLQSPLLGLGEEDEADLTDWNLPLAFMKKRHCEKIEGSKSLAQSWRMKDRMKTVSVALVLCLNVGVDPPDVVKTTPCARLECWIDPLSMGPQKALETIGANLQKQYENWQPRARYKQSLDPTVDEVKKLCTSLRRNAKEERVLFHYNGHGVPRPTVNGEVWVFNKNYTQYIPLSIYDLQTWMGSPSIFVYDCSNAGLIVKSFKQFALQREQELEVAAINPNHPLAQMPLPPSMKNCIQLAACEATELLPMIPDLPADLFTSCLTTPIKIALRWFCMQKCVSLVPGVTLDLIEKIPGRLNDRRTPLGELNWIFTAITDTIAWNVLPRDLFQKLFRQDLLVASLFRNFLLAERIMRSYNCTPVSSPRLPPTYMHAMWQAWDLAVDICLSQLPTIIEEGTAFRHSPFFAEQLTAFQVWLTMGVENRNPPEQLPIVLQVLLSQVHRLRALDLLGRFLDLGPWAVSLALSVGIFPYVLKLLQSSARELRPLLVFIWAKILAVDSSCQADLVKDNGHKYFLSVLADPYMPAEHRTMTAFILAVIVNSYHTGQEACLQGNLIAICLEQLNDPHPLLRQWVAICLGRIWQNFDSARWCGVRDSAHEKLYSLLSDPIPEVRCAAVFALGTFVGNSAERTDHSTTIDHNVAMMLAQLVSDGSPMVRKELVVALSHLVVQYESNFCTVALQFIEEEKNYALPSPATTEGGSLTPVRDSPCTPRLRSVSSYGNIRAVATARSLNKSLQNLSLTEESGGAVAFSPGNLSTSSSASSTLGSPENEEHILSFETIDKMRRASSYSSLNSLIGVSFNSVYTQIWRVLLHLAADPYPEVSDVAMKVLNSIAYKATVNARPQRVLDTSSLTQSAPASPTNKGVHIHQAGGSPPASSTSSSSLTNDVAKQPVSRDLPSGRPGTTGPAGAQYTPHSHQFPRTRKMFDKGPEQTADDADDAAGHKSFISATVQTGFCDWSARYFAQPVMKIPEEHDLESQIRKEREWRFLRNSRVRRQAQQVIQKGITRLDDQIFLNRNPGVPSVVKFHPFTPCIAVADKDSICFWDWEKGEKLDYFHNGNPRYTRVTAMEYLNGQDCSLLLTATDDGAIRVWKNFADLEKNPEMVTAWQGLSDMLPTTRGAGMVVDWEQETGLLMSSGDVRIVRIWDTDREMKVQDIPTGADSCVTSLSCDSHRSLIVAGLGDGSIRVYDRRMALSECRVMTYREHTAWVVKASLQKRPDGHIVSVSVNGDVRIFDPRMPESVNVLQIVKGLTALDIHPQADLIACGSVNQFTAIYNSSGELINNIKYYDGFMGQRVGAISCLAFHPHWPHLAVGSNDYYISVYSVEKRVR
UniProt P63074: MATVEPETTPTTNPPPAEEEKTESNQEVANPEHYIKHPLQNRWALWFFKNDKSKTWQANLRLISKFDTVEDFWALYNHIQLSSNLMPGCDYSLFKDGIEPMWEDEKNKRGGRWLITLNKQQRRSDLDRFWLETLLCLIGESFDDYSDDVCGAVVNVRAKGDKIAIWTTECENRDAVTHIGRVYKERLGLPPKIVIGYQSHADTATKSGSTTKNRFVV
UniProt P23443: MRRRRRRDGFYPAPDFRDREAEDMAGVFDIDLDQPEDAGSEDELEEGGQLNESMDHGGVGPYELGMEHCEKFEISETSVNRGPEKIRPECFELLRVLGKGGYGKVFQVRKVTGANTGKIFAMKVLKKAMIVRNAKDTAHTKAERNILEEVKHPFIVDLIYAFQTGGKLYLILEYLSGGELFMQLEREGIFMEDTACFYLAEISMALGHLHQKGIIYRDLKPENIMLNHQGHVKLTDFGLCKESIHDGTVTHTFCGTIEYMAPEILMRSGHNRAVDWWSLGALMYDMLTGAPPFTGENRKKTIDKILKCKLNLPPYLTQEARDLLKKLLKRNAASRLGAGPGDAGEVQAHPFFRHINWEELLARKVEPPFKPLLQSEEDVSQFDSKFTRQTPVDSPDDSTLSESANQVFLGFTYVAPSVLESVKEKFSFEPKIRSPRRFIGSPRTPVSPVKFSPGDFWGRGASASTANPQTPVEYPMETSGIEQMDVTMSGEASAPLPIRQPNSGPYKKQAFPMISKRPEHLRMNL
UniProt Q62622: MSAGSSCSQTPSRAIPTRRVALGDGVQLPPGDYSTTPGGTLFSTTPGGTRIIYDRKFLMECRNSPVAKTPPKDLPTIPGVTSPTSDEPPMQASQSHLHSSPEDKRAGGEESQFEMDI

Experiments:
HA-Raptor [1] = molecular target: HA-Raptor (UniProt Q8N122); test: co-IP; HEK293 cells transfected with tagged constructs, with H19 expression; immunoblot
HA-Raptor [2] = molecular target: HA-Raptor (UniProt Q8N122); test: co-IP; GH3 cells transfected with tagged constructs, with increasing H19 expression; anti-Flag or anti-HA agarose beads, 3-4 h at 4 °C; RNase treatment group as negative control; immunoblot
[3] = molecular target: eIF4E (endogenous, GH3 cells) (rat (endogenous in GH3)) (UniProt P63074); test: pull-down; eIF4E precipitated with cap analogue m7GTP Sepharose beads from whole-cell lysates of GH3 cells transfected with the indicated dose of H19; immunoblot

Substance	binding (HA-Raptor [1])	binding (HA-Raptor [2])	binding [3]
Flag-S6K1 (from UniProt P23443 1-525)	binds	binds	–
4E-BP1 (endogenous, GH3 cells) (from UniProt Q62622 1-117)	–	–	binds
